The text below walks through data of the supplement of paper PMC12578635.

The other results are listed elsewhere or left out. No stated cut-off is given here; in the data, active = 150% or more and inactive = the rest. Most values come without repeats; read them as rough.

This experiment relates to Staphylococcus aureus JE2-lux inside RAW 264.7 macrophages. Description: intracellular bacterial bioluminescence relative to DMSO vehicle; higher = higher intracellular bacterial metabolic activity. The settings on record: 10 µM; treatment time 4 h; gentamicin 50 µg/ml.
Consider `COc1ccc2[nH]c3nc(SCc4nc5ccccc5[nH]4)nnc3c2c1`, for which the intracellular bacterial bioluminescence is inactive: 39.5%.
As for `Cc1ccc(C)c(N2CCN(S(=O)(=O)c3c(C)sc(C)c3-c3cc(C(F)(F)F)on3)CC2)c1`, the intracellular bacterial bioluminescence was inactive: 87.2%.
The value for `COc1ccc(C(=O)Nc2cccc(-c3ccc4nncn4n3)c2)c(OC)c1` was inactive: 68.3%.
The value for `CN(c1cncc(C(=O)NCc2cccnc2)c1)S(=O)(=O)c1ccccc1` was inactive: 117%; that for `CC(=O)Nc1ccc(S(=O)(=O)Nc2ccc(O)c3ccccc23)cc1` was inactive: 92.2%.
The value for `CC(=O)Cc1nsc(NC(=O)c2cc(-c3ccc(Cl)cc3Cl)oc2C)n1` was inactive: 105%; that for `Cc1cc(C)c2nc(NC(=O)c3cccc(C(F)(F)F)c3)sc2c1` was inactive: 129%; that for `COc1ccc(NC(=S)N2CCC(n3c(C)nc4cc(F)ccc43)CC2)cc1` was inactive: 91.9%.
For the compound `CCc1cc2cc(C)ccc2nc1SCC(=O)NNC(=O)c1ccc(OC)cc1`, the intracellular bacterial bioluminescence was inactive: 84%.
In the case of `Cc1nc2ccc(C(=O)NC(c3ccccc3)c3cccnc3)cc2[nH]1` (configuration not stated) it was inactive: 116%; in that of `CCOc1ccccc1-c1nc(Cn2nc(-c3ccc(OC)cc3)c3c(C)onc3c2=O)c(C)o1`, inactive: 85.7%.
The value for `COc1cccc2sc(NNC(=O)c3cc(-c4cccs4)nc4ccccc34)nc12` was inactive: 103%; that for `COc1cccc(/C=C/c2nc(C#N)c(N3CCN(C(=O)c4ccccc4Cl)CC3)o2)c1` was inactive: 126%.
As for `CCn1c(SCc2nnc(-c3ccc(OC)c(OC)c3)o2)nc2ccccc2c1=O`, the intracellular bacterial bioluminescence was inactive: 76.9%.
The value for `Cc1ccc(C(=O)Nc2nc(-c3ccc(C)s3)ns2)cc1` was inactive: 127%.
The value for `CCN1CCN(c2nc3ncn(CC(=O)Nc4ccc(F)c(C)c4)c(=O)c3s2)CC1` was inactive: 99.4%; that for `COC(=O)c1ccc(C(=O)NC(=S)Nc2nc3c(s2)CCc2ccccc2-3)cc1` was inactive: 119%.
As to `Cc1ccc(NC(=S)NCCNc2nc3cc4c(cc3cc2C#N)OCO4)cc1C`, the intracellular bacterial bioluminescence was inactive: 120%.
The value for `O=C(Nc1cccc(Cl)c1)c1cc(-c2ccc3c(c2)OCCO3)on1` was inactive: 136%; that for `Cc1sc2ncnc(SCC(=O)Nc3sc(-c4ccccc4)cc3C(N)=O)c2c1C` was inactive: 96.3%.
Consider `Cc1n[nH]c2c1C(C(=O)c1cccc(Cl)c1)CC(=O)N2` (configuration not stated), for which the intracellular bacterial bioluminescence was inactive: 89.1%.
In the case of `COc1ccc(C(=O)C2CCN(CC(=O)Nc3ccccc3F)CC2)cc1` it was inactive: 94.7%; in that of `Cc1n[nH]c2c1C(C(=O)c1ccc3c(c1)OCCO3)CC(=O)N2` (configuration not stated), inactive: 112%; in that of `Cc1cc2c(cc1C)NC(CC(=O)Nc1ccccc1[N+](=O)[O-])C(=O)N2` (configuration not stated), inactive: 105%.
In the case of `Cc1ccc(NC(=O)N2CCCC2C(=O)Nc2ccccc2Cl)cc1` (configuration not stated) it was inactive: 109%.
The value for `COc1ccc(Nc2cc(C)nc(-n3cc([N+](=O)[O-])cn3)n2)cc1Cl` was inactive: 46.4%; that for `O=C(CN1N=NC2C(=O)N(c3ccc(Br)cc3)C(=O)C21)Nc1ccccc1[N+](=O)[O-]` (configuration not stated) was inactive: 106%; that for `COc1ccc(S(=O)(=O)NC(=N)NCCc2ccc(Cl)cc2)cc1OC` was inactive: 62.7%.
Turning to `O=C(NCc1ccc(F)cc1)C1CCN(c2nc(-c3ccccc3)no2)CC1`, the intracellular bacterial bioluminescence is inactive: 112%.
The value for `COCCNC(=S)N1CCCN(c2nc3cc4c(cc3cc2C#N)OCO4)CC1` was inactive: 95.5%.
Turning to `CCCCNC(=O)c1cc(-c2ccc(OC)cc2)nc2n[nH]c(-c3ccc(OC)cc3)c12`, the intracellular bacterial bioluminescence is inactive: 86.4%.
Regarding `Cc1ccc(N/C=C(\C#N)c2nc(-c3ccc([N+](=O)[O-])cc3)cs2)cc1Cl`, the intracellular bacterial bioluminescence is inactive: 112%.
The value for `O=C(CS(=O)(=O)c1ccccc1)Nc1ccc2c(c1)C(=O)NC2=O` was inactive: 127%; that for `O=C(CCn1cnc2ccccc2c1=O)NC1CCC(=O)NC1c1ccc(F)cc1` (configuration not stated) was inactive: 91.1%; that for `Cc1ccc2onc(CNC(=O)N3CCCC3)c2c1` was inactive: 95.3%.
Consider `O=C(OC1CCCCC1)c1cc2cc([N+](=O)[O-])ccc2oc1=O`, for which the intracellular bacterial bioluminescence was inactive: 121%.
In the case of `O=C(c1ccc(COc2ccc(F)cc2)o1)n1cccn1` it was inactive: 89.3%; in that of `CCn1c(=O)c(C)nc2cc(-c3noc(C(NS(=O)(=O)c4ccc(C)cc4)C(C)C)n3)ccc21` (configuration not stated), inactive: 108%.
The value for `O=C(O)c1cnc(N2CCC(N3CCCCC3)CC2)c(NS(=O)(=O)c2ccccc2)c1` was inactive: 95.1%.
Consider `Cc1cc(C)c(C#N)c(SCC(=O)Nc2cccc3cccnc23)n1`, for which the intracellular bacterial bioluminescence was inactive: 109%.
In the case of `CCOC(=O)N1CCN(C(=O)CSc2ccnc3c2c(=O)n(C)c(=O)n3C)CC1` it was inactive: 93.5%.
On to `CSc1ccc(CNC(=O)c2nccn2Cc2ccccc2C)cc1`, for which the intracellular bacterial bioluminescence was inactive: 4.42%.
The value for `COc1ccc(CNC(=O)CSc2nc3[nH]ncc3c(=O)n2-c2ccccc2)cc1` was inactive: 110%.
With `CC1CN(C(c2cccs2)c2sc3ncnn3c2O)CC(C)O1` (configuration not stated), the intracellular bacterial bioluminescence is inactive: 117%.
In the case of `Cc1cc(C)n2nc(C(=O)NC(c3ccccc3)c3cccnc3)c(Cl)c2n1` (configuration not stated) it was inactive: 78.5%.
The value for `COc1ccc(C)cc1NC(=O)C1CCCN(C(=O)Nc2ccc(F)cc2)C1` (configuration not stated) was inactive: 118%; that for `Cc1cc(O)nc(SCc2cn3cccnc3n2)n1` was inactive: 119%; that for `Cc1oc(-c2ccc(F)cc2)nc1C(=O)NC(c1ccccc1)c1cccnc1` (configuration not stated) was inactive: 98.2%.
The value for `COc1ccc(OC)c2[nH]c(=O)c(CCNC(=O)c3cc4ccccc4oc3=O)cc12` was inactive: 96.8%; that for `COc1ccccc1CCNC(=N)NS(=O)(=O)c1ccc(F)cc1` was inactive: 75%.
Regarding `CC(C)Cn1c(=O)c2ccc(C(=O)NC3CCCC3)cc2n2c(=S)[nH]nc12`, the intracellular bacterial bioluminescence was inactive: 123%.
With `CCOC(=O)c1ccccc1NC(=O)CSc1ncnc2c1nnn2-c1ccc(C)cc1`, the intracellular bacterial bioluminescence is inactive: 89.5%.
The value for `CN(C)S(=O)(=O)c1ccc2nc(NC(=O)C(c3ccccc3)c3ccccc3)sc2c1` was inactive: 123%.
In the case of `CCOc1ccccc1NC(=O)NCCNc1nc2cc(C)c(C)cc2cc1C#N` it was inactive: 48%; in that of `O=C(CN(C(=O)Cn1nnc2ccccc21)c1ccccc1)NCC1CCCO1` (configuration not stated), inactive: 119%.
On to `COc1ccc(-c2nc(OC)c3c4c(sc3n2)CCCC4)cc1`, for which the intracellular bacterial bioluminescence is inactive: 104%.
The value for `COc1cc2ccccc2cc1C(=O)Nc1ccc2c(c1)C(=O)N(C)C2=O` was inactive: 142%.
